These are yes or no findings as the source states them, for the method shown. Some results given as binding are weak or reduced against the parent protein; the word gives no strength. Tags and fused reporters may be left off the sequences shown.

For assay [1], the target named is T1, GAL4 BD-ScPCS60 1-543 (S. cerevisiae) (UniProt P38137).
T1 sequence: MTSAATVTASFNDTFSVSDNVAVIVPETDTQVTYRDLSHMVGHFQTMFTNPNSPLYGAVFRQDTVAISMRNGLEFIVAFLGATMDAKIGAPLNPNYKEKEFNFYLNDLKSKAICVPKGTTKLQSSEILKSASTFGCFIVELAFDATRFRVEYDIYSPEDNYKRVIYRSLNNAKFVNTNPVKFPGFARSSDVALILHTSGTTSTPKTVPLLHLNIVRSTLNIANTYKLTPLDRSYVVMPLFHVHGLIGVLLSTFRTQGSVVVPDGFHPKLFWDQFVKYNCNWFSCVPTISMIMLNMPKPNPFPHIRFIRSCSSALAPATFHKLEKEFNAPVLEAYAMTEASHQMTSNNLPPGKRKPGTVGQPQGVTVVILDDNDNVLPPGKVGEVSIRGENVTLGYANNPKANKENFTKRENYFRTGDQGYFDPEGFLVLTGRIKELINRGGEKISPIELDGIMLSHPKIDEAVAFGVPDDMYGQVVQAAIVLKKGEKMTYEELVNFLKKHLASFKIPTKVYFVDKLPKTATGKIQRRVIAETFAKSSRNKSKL
Kind of assay: two-hybrid; colony-lift filter assay in S. cerevisiae PCY2; GAL4-AD and GAL4-BD fusions.

Assay [2] addresses T1, GAL4 BD-ScPCS60 1-543 (S. cerevisiae). Kind of assay: two-hybrid; growth-based assay in S. cerevisiae PJ69-4A; GAL4-AD and GAL4-BD fusions; -Leu -Trp -His -Ade (7 days) and -Leu -Trp -His + 5 mM 3-AT (10 days).
Assay [3] has as its target T2, ScPEX19, yeast two-hybrid fusion (yeast) (UniProt Q07418).
T2 sequence: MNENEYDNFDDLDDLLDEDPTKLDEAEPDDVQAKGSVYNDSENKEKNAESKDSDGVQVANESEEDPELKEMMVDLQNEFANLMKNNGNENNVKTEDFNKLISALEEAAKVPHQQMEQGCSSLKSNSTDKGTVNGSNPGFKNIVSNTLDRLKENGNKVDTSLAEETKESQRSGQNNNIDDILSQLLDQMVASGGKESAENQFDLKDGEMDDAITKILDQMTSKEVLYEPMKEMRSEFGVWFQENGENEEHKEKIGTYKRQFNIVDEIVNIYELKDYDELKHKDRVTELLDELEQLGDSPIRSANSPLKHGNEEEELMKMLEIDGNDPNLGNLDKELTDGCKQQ
Kind of assay: two-hybrid; yeast two-hybrid shown in SI Appendix figures (S4, S8 C and D, S12C, S13B); read-out not told in the text shown.

Assay [4] addresses T3, GAL4 BD-ScSgt2 1-346 (S. cerevisiae) (UniProt Q12118).
T3 sequence: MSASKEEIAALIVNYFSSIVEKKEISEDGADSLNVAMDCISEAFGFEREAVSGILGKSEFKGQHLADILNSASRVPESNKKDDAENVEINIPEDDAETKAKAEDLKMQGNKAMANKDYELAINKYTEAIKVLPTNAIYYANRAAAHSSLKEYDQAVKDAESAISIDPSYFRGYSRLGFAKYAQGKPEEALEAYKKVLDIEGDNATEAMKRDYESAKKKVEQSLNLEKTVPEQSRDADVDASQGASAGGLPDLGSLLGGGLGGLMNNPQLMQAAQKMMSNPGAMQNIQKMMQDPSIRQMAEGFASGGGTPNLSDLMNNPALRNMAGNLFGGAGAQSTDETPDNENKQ
Kind of assay: two-hybrid; growth-based assay in S. cerevisiae PJ69-4A; GAL4-AD and GAL4-BD fusions; -Leu -Trp -His -Ade (7 days) and -Leu -Trp -His + 5 mM 3-AT (10 days).

B1: GAL4 AD-ScPEX5 1-612 (protein, UniProt P35056 1-612)
chain: MDVGSCSVGNNPLAQLHKHTQQNKSLQFNQKNNGRLNESPLQGTNKPGISEAFISNVNAISQENMANMQRFINGEPLIDDKRRMEIGPSSGRLPPFSNVHSLQTSANPTQIKGVNDISHWSQEFQGSNSIQNRNADTGNSEKAWQRGSTTASSRFQYPNTMMNNYAYASMNSLSGSRLQSPAFMNQQQSGRSKEGVNEQEQQPWTDQFEKLEKEVSENLDINDEIEKEENVSEVEQNKPETVEKEEGVYGDQYQSDFQEVWDSIHKDAEEVLPSELVNDDLNLGEDYLKYLGGRVNGNIEYAFQSNNEYFNNPNAYKIGCLLMENGAKLSEAALAFEAAVKEKPDHVDAWLRLGLVQTQNEKELNGISALEECLKLDPKNLEAMKTLAISYINEGYDMSAFTMLDKWAETKYPEIWSRIKQQDDKFQKEKGFTHIDMNAHITKQFLQLANNLSTIDPEIQLCLGLLFYTKDDFDKTIDCFESALRVNPNDELMWNRLGASLANSNRSEEAIQAYHRALQLKPSFVRARYNLAVSSMNIGCFKEAAGYLLSVLSMHEVNTNNKKGDVGSLLNTYNDTVIETLKRVFIAMNRDDLLQEVKPGMDLKRFKGEFSF
Regarding B1, the binding result in assay [1] and in assay [2] was “binds” throughout.

B2: ScSgt2, yeast two-hybrid fusion (protein, UniProt Q12118 1-346)
chain: MSASKEEIAALIVNYFSSIVEKKEISEDGADSLNVAMDCISEAFGFEREAVSGILGKSEFKGQHLADILNSASRVPESNKKDDAENVEINIPEDDAETKAKAEDLKMQGNKAMANKDYELAINKYTEAIKVLPTNAIYYANRAAAHSSLKEYDQAVKDAESAISIDPSYFRGYSRLGFAKYAQGKPEEALEAYKKVLDIEGDNATEAMKRDYESAKKKVEQSLNLEKTVPEQSRDADVDASQGASAGGLPDLGSLLGGGLGGLMNNPQLMQAAQKMMSNPGAMQNIQKMMQDPSIRQMAEGFASGGGTPNLSDLMNNPALRNMAGNLFGGAGAQSTDETPDNENKQ
For the molecule B2, the binding entry in assay [3] was “binds weakly”.

B3: GAL4 AD-ScPEX19 1-342 (full-length) (protein, UniProt Q07418 1-342)
chain: MNENEYDNFDDLDDLLDEDPTKLDEAEPDDVQAKGSVYNDSENKEKNAESKDSDGVQVANESEEDPELKEMMVDLQNEFANLMKNNGNENNVKTEDFNKLISALEEAAKVPHQQMEQGCSSLKSNSTDKGTVNGSNPGFKNIVSNTLDRLKENGNKVDTSLAEETKESQRSGQNNNIDDILSQLLDQMVASGGKESAENQFDLKDGEMDDAITKILDQMTSKEVLYEPMKEMRSEFGVWFQENGENEEHKEKIGTYKRQFNIVDEIVNIYELKDYDELKHKDRVTELLDELEQLGDSPIRSANSPLKHGNEEEELMKMLEIDGNDPNLGNLDKELTDGCKQQ
Consider B3, for which the binding entry in assay [4] was “binds weakly”.

Source of the values: publication PMC12956874.
